# Laboratory results published in the supplement of paper PMC3334620.
# The full ranking holds about 33,000 sequences; the median of “E-score (-0.5 to 0.5)” is about -0.0014, and the highest 2% start at about 0.25. The list shows a part of the results.
# Molecular target: T1, Cad1 (UniProt P24813)
# T1 sequence: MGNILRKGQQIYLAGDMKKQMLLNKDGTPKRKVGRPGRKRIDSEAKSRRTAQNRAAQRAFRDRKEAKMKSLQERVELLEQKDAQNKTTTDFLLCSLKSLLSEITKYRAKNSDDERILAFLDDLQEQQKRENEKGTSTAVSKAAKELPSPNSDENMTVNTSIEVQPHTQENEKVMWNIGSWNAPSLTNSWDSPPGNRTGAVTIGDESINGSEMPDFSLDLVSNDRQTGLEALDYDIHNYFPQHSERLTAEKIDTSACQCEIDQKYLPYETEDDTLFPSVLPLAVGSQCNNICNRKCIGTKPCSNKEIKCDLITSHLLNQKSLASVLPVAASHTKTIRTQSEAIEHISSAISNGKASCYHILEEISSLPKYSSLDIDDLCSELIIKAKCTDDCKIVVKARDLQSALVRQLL
# Test: PBM E-score (8-mer binding enrichment) (E-score (-0.5 to 0.5)); higher = stronger / more preferred TF binding
# Settings: protein concentration: 100 nM; construct: GST-full length
# Method in brief: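 PURExpress in vitro transcription/translation supplied GST-tagged yeast transcription factors, either full-length or DNA-binding domain. Applied at about 100-200 nM to universal all-10-mer Agilent arrays double-stranded by primer extension, the bound protein was detected with fluorescent anti-GST. E-scores, modified Wilcoxon-Mann-Whitney statistics, were given by the Universal PBM Analysis Suite to ungapped eight-base words pooled with their reverse complements after masliner normalisation.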
row,Sequence,PBM E-score
1,TATTGCGA,0.038
2,CTGGTATA,-0.234
3,ATATATTG,-0.0927
4,GAGCTGAA,0.00328
5,ATTGGGCG,-0.00174
6,AATCACGC,0.0879
7,CTATTTAC,0.0673
8,GCGAGTGA,0.0547
9,AACATCAA,0.0836
10,ACTAAGAT,0.214
11,TGGTAAAA,0.18
12,CGTAGGTC,-0.162
13,CGTCTCAC,-0.00352
14,AATGCAAG,0.0846
15,CAATCCGC,0.076
16,CGAGAGAC,-0.122
17,ATACCTAT,0.0797
18,ATAGAGGG,-0.0413
19,ACTTCTCC,-0.108
20,ATTAACAC,0.275
21,CTTTGGTA,-0.155
22,GCCCACCA,-0.196
23,CCCAAGCG,-0.0171
24,AACTTGTA,0.0473
25,CTTAAAGA,-0.0851

row,Sequence,PBM E-score
1,CATAACAG,0.172
2,AGGAACGG,0.0386
3,AAGAACCC,-0.102
4,GAGTGTCA,0.153
5,AGAGTGCA,-0.209
6,TAGACGAA,-0.0971
7,GGAGTGTA,-0.241
8,ATTTACCC,-0.042
9,ACCATAAA,0.0469
10,CCCAATAC,-0.0948
11,ACAGGGAA,-0.109
12,AGCCCAGC,-0.128
13,AATTGTAA,0.0822
14,GGAGCTAC,-0.253
15,AGAGTCTG,-0.158
16,ACGCTCGC,0.0494
17,TAGCCAGA,-0.154
18,AGCTAATC,0.154
19,GTCCACGA,-0.104
20,TGTTACAA,0.17
21,GTACTCGA,-0.0287
22,CATATGAA,0.0736
23,GAGATCTA,-0.0199
24,TACGCTCA,-0.0567
25,CAGGGAAG,-0.212

# 4 successive entries out of the list so far:
row,Sequence,PBM E-score
23,CCCAAGCG,-0.0171
24,AACTTGTA,0.0473
25,CTTAAAGA,-0.0851
1,CATAACAG,0.172

# The listing continues.

row,Sequence,PBM E-score
1,CGGAGAAC,-0.0324
2,TGGCGAAA,0.122
3,TAGCACAA,-0.0106
4,CTTCAATA,0.0605
5,GTGATAAA,0.12
6,GCGTCCAA,-0.0369
7,AGTCACAG,-0.0577
8,CCCCCGCA,-0.295
9,CAGAAAGG,-0.153
10,TTACGCAA,0.268
11,AACAGTGA,-0.0303
12,GTACAGTA,-0.0144
13,CAATACCC,-0.00468
14,TCCGAAGA,0.197
15,CGCAATAG,0.0142
16,CGATGGCA,-0.123
17,ACCGACGG,-0.141
18,AACGCATA,0.218
19,CTGTGTTC,0.166
20,CGATGATA,0.0469
21,CAGGGTCC,-0.134
22,ACGATGTA,0.191
23,CAGATTAC,0.0844
24,ACAGTGGA,-0.0217
25,CGAGCGTA,0.0172

row,Sequence,PBM E-score
1,CATAGCTC,-0.135
2,AACTCGAG,0.141
3,GAAGGGAA,-0.176
4,CTTAATAC,-0.0147
5,ACCTCTCC,-0.205
6,AAAGATCG,-0.0698
7,CGTCTCAG,0.0242
8,TAAGACTA,-0.0699
9,GAGAATCC,0.153
10,GAATTTGA,0.138
11,CAACTGTC,0.0813
12,ATACTTCC,0.0356
13,CCGAGGCC,-0.0203
14,GCGAGGTA,0.0523
15,CGATCTGC,-0.00987
16,GTCGATGA,-0.0161
17,GACTGGGC,-0.197
18,GAATACTC,-0.21
19,ATACGAGA,-0.156
20,ACGTGGGG,-0.126
21,CTCTGCTC,-0.0577
22,AGCTTAAT,0.141
23,ACAGGGGA,-0.181
24,AGTCAGCA,0.242
25,CCTTGTCC,0.104

row,Sequence,PBM E-score
1,TACGTGGA,-0.14
2,CGTTGAAG,-0.178
3,ATACTTGC,0.0566
4,GCGAGTAC,0.128
5,CCTCTAGA,-0.13
6,CGGGTGGC,-0.274
7,CCGTGACA,-0.101
8,AGGCTTTG,-0.134
9,AGGTCATG,-0.0332
10,GTATCTGA,0.0184
11,GATCTGTA,-0.0378
12,ATGCTCGG,0.0283
13,TTAGTCAA,0.249
14,AGGTCAGA,-0.13
15,AAACGTCT,0.0867
16,CGTTGTCA,0.067
17,AAGTGGAT,-0.12
18,CTCCCGGC,-0.0648
19,ACGCGTGG,0.0402
20,CCAGACGC,0.0161
21,CAACTAAC,0.144
22,CCTATGGA,-0.0285
23,GCGGAGGA,-0.16
24,AAACGGAA,0.266
25,CCTGGTGC,-0.0804

# Fetched one by one from above, 3 records:
row,Sequence,PBM E-score
1,TACGTGGA,-0.14
21,CAACTAAC,0.144
8,AGGCTTTG,-0.134

# Next records follow.

row,Sequence,PBM E-score
1,CCAGATAA,0.0761
2,GGCATTTA,-0.248
3,AACCTAAC,0.0544
4,AAGGTGGG,-0.232
5,TGCCCAAA,-0.126
6,CAACCGGC,0.162
7,ATTAGCTA,0.109
8,ATTCGCCC,-0.0599
9,ATAGCGCC,0.122
10,CAAGCAGA,0.0659
11,ATGAGCTG,-0.015
12,AGCACTAC,-0.0732
13,ATGTGTAC,0.0821
14,ACCCTGCG,-0.225
15,AAGTGCCT,-0.303
16,AACGCGCA,0.189
17,ACTGCTGA,0.132
18,ACAAACCA,0.103
19,AAATGAAG,0.00624
20,CTAAGCCA,-0.154
21,CTGAGTAA,0.254
22,ATAATAAC,0.114
23,ACTCCACG,-0.203
24,ATACCCTG,0.00257
25,AGAATAAG,0.0341

row,Sequence,PBM E-score
1,GCCATCTA,-0.162
2,CCTGTAGA,-0.0405
3,AGATCAAA,-0.0739
4,CCGTTAAC,0.0965
5,GGGCCGCA,-0.201
6,AGTCCCAG,-0.179
7,AAAAAATT,0.12
8,ACCAAGCT,0.0929
9,GGCAATCA,-0.0893
10,CATGTTGG,-0.0992
11,CACCAGGG,-0.269
12,ACGAGTAT,0.0386
13,AGTTGGAC,-0.173
14,CTCCTTGA,-0.12
15,GAGACCAC,-0.0844
16,CGATCGGA,0.0447
17,AGTTTGTA,0.0287
18,CCGACTCA,-0.133
19,CAAGAGTA,-0.0395
20,ATTTGAAG,0.0122
21,GACCTACC,0.0154
22,CGTATTCA,0.0834
